The values that follow come from publication PMC4479014.

Amino acid sequences for entries named in this document (tags omitted).
UniProt P56959: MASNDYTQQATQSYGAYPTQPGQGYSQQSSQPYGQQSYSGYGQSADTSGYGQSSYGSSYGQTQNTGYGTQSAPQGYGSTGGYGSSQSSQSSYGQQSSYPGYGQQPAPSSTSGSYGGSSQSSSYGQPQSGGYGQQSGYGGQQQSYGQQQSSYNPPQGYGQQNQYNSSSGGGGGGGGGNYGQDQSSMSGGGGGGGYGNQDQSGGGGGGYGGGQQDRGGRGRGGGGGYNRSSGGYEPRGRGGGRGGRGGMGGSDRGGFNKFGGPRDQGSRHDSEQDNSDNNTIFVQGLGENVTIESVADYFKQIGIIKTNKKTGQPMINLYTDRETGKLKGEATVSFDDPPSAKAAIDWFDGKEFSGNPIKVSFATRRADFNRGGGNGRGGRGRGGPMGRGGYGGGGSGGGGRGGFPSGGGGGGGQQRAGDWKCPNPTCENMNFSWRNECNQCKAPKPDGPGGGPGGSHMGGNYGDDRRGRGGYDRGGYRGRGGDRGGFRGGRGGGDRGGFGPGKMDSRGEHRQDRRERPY

The assay has as its target FUS (in neuroblastoma cells) (UniProt P56959). Briefly: affinity purification with mass spectrometry; IP of FUS in neuroblastoma cells, associated proteins identified by mass spectrometry (Supplementary Table 1).

These are yes or no findings as the source states them, for the method shown. In cells and extracts the contact can be indirect. These calls come from enrichment with a bait or labelling near it, and not all partners need be listed.

B1: poly (A)-specific ribonuclease PAN2 (in neuroblastoma cells) (protein, UniProt Q8BGF7 1-1200)
chain: MNFEGLDPGLAEFSPAMHSTLDPVLDAHLNPSLLQNVELDPEGVALEALPVQESVHIMEGVYSELHSVVAEVGVPVSVSHFDLHEEMLWVGSHGGHATSFFGPALERYSSFQVNGGDDIRQIQSLENGILFLTKNNLKYMARGGLIIFDYLLDENEDMHSVLLTDNSTLLVGGLQNHVLEIDLNTVQETQKYAVETPGVTIMRQTNRFFFCGHTSGKVSLRDLRSFKVEHEFDAFSGSLSDFDVHGNLLAACGFSSRLTGLACDRFLKVYDLRMMRAITPLQVHVDPAFLRFIPTYTSRLAIISQSGQCQFCEPTGLANPADIFHVNPVGPLLMTFDVSASKQALAFGDSEGCVHLWTDSPEPSFNPYSRETEFALPCLVDSLPPLDWSQDLLPLSLIPVPLTTDALLSDWPAANSAPAPRRAPPVDAEILRTMKKVGFIGYAPNPRTRLRNQIPYRLKESDHEFDNFSQVTESPTGREEEPLHTVSKKYRKVTIKYSKLGLEDFDFKHYNKTLFAGLEPHIPNAYCNCMIQVLYFLEPVRCLIQNHLCQKEFCLACELGFLFHMLDLSRGDPCQGSNFLRAFRTIPEASALGLILADSDEASGKGSLARLIQRWNRFILTQLHQDMQELEVPQAYRGAGGSFCSSGDSIIGQLFSCEMENCSLCRCGSETVRASSTLLFTLSYPEDKTGKNYDFAQVLKRSICLEQNTQAWCDNCEKYQPTIQTRNIRHLPDILVINCEVNSSKEADFWRLQAEVAFKIAVKKYGGEMKSKEFALADRKELRSPEGFLCSSIEELKNVWLPFSIRMKMTKNKGLDVCNWADEHELSSLGAPSQWGPARAEEELGVYVYDLMATVVHILDSRTGGSLVAHIKVGETYHQRKEGVTHQQWYLFNDFLIEPIDKYEAVQFDMNWKVPAILYYVKRNLNSRYNLNIKNPIEASVLLAEASLARKQRKTHTTFIPLMLNEMPQVGDLVGLDAEFVTLNEEEAELRSDGTKSTIKPSQMSVARITCVRGQGPNEGIPFIDDYISTQEQVVDYLTQYSGIKPGDLDAKISSKHLTTLKSTYLKLRFLIDIGVKFVGHGLQKDFRVINLMVPKDQVLDTVYLFHMPRKRMISLRFLAWYFLDLKIQGETHDSIEDARTALQLYRKYLELSKNGTEPESFHKVLKGLYEKGRKMDWKVPEPESQTSPKNAAVFSVLAL
With B1, the binding entry is “binds”.

B2: cleavage and polyadenylation-specific factor CPSF6 (in neuroblastoma cells) (protein, UniProt Q6NVF9 1-551)
chain: MADGVDHIDIYADVGEEFNQEAEYGGHDQIDLYDDVISPSANNGDAPEDRDYMDTLPPTVGDDVGKGAAPNVVYTYTGKRIALYIGNLTWWTTDEDLTEAVHSLGVNDILEIKFFENRANGQSKGFALVGVGSEASSKKLMDLLPKRELHGQSPVVTPCNKQFLSQFEMQSRKTTQSGQMSGEGKAGPPGGGSRAAFPQGGRGRGRFPGAVPGGDRFPGPAGPGGPPPPFPAGQTPPRPPLGPPGPPGPPGPPPPGQVLPPPLAGPPNRGDRPPPPVLFPGQPFGQPPLGPLPPGPPPPVPGYGPPPGPPPPQQGPPPPPGPFPPRPPGPLGPPLTLAPPPHLPGPPPGAPPPAPHVNPAFFPPPTNSGMPTSDSRGPPPTDPYGRPPPYDRGDYGPPGREMDTARTPLSEAEFEEIMNRNRAISSSAISRAVSDASAGDYGSAIETLVTAISLIKQSKVSADDRCKVLISSLQDCLHGIESKSYGSGSRRERSRERDHSRSREKSRRHKSRSRDRHDDYYRERSRERERHRDRDRDRDRERDREREYRHR
Regarding B2, the binding entry is reported as “binds”.
